Source: the supplement of paper PMC12823440, “Inhibitors supercharge kinase turnover through native proteolytic circuits” (Nature, 2025)
Structures can show the parent of a compound that is named as a salt. The list shows a part of the results. Hit calls seldom repeat between salt and free forms of one compound.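 Kinases were expressed as nanoluciferase fusions in K562 cells and luminescence was read every 4 h between 2 and 18 h as percent of control, DMSO set to 100% and a positive control to 0%. A time point counts as decreased when the signal drops significantly (2 sigma). The hit call is the authors' own, does not follow from the count of time points alone, and its rule is not shown.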

By UniProt entry, the sequences of proteins in these tests, tags left out. Where a name states a change or a piece, a line headed by the entry shows the natural chain unless it says otherwise.
UniProt P31749: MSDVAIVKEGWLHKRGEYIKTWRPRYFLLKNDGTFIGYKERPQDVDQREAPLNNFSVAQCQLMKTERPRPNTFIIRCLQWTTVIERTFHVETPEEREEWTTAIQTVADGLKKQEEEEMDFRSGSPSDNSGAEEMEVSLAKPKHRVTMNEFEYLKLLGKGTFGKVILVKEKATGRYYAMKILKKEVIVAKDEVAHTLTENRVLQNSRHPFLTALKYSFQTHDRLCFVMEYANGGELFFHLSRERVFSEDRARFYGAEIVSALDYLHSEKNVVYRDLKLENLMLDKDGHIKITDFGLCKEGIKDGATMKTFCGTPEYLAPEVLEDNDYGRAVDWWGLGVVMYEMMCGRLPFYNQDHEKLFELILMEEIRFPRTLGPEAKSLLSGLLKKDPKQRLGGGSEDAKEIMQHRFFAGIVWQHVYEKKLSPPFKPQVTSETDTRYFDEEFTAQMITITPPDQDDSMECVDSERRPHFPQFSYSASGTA

target: AKT1 (UniProt P31749); assay: kinase-Nluc reporter destabilization hit call (1 = scored as downregulated) (binary); higher = compound decreases kinase abundance; conditions: K562; 2-18 h

kinase-Nluc reporter destabilization hit call, inactive:
CCc1ccc(C(=O)COc2ccc(CC3SC(=O)NC3=O)cc2)nc1 (centres undefined) (10 µM) 0
Cc1ccc(-c2ccc3c(ccc4sc5c(c43)NC[C@@H](C)NC5=O)n2)cn1 (10 µM) 0
CC[C@H](Nc1ncnc2[nH]cnc12)c1oc2ccccc2c(=O)c1-c1cccc(F)c1 [Tenalisib] (10 µM) 0
CCCC(=O)Nc1nc2c(ncn2[C@@H]2O[C@@H]3COP(=O)(O)O[C@H]3[C@H]2OC(=O)CCC)c(=O)[nH]1 [Dibutyryl-cGMP (sodium)] (10 µM) 0
CC(C)c1cnn2c(NCc3ccccc3-n3cccn3)nc(OC3CCCNC3)nc12 (centres undefined) (2.5 µM) 0
OCCN(CCO)c1ccc(C(c2ccc(Cl)cc2)c2ccc(N(CCO)CCO)cc2)cc1 (10 µM) 0
CCCCNC(=N)NC(=N)N [Buformin (hydrochloride)] (2.5 µM) 0
Fc1c(Br)cccc1Nc1ncnc2cc3c(cc12)OCCO3 (2.5 µM) 0
Cc1cc(Nc2nc(N[C@@H](C)c3ncc(F)cn3)ncc2Cl)[nH]n1 (10 µM) 0
Cc1cc(Nc2cc(CN3CCOCC3)c3nc(C)c(Cc4ccc(Cl)cc4F)n3n2)n[nH]1 [Gandotinib] (2.5 µM) 0
COc1cc(N2CCC(N(C)C)CC2)ccc1Nc1ncc(Cl)c(Nc2ccccc2P(C)(C)=O)n1 (2.5 µM) 0
Nc1[nH]c(=O)nc2c1ncn2[C@@H]1O[C@H](CO)[C@@H](O)[C@H]1O [Crotonoside] (10 µM) 0
Cn1cc(-c2ccc(F)c(C(F)(F)F)c2)nc1C1CCN(c2ncnc3[nH]ncc23)CC1 (10 µM) 0
CCOc1ccccc1C=C1C(=O)Nc2ccccc21 (10 µM) 0
CC(C)(C)C(=O)N1N=CC[C@H]1c1ccccc1 (10 µM) 0
COc1ccc(CCNc2ncc3c(=O)n(-c4cccc(F)c4)c(=O)[nH]c3n2)cc1OC (2 µM) 0
Cc1ccc(-c2nn(C(C)(C)CNC(=O)c3ccncc3)c3ncnc(N)c23)cc1 (2.5 µM) 0
CNC(=O)c1ccc(-c2cnc3cnc(-c4ccccc4)cn23)cc1 (10 µM) 0
CCn1nc(C2CCN(C(=O)CCO)CC2)nc1-c1cnc(N)c(-c2nnc(C(C)(C)C)o2)n1 (10 µM) 0
CCCCCCCC/C=C\CCCCCCCC(=O)NCC(=O)O [N-Oleoyl glycine] (10 µM) 0
CC1(COc2ccc3c(c2)ncn3-c2ccc3cccc(N4CCC(N)CC4)c3n2)COC1 [Crenolanib] (2.5 µM) 0
CC(CCc1ccccn1)(CCc1ccccn1)C(=O)c1ccccc1 (10 µM) 0
COc1cc(-c2cc(-c3cc(OC)c(OC)c(OC)c3)cc(C(F)P(=O)(OCOC(=O)C(C)(C)C)OCOC(=O)C(C)(C)C)c2)cc(OC)c1OC (centres undefined) [Stafia-1-dipivaloyloxymethyl ester] (2.5 µM) 0
CC1(N)CCN(c2cnc3c(-c4cccc(Cl)c4Cl)[nH]nc3n2)CC1 (2.5 µM) 0
CC(C)(O)[C@@H]1CC[C@](C)([C@H]2[C@@H](O)C[C@@]3(C)[C@@H]4C[C@H](O[C@@H]5O[C@H](CO)[C@@H](O)[C@H](O)[C@H]5O)[C@H]5C(C)(C)[C@@H](O[C@@H]6OC[C@@H](O)[C@H](O)[C@H]6O[C@@H]6O[C@H](CO)[C@@H](O)[C@H](O)[C@H]6O)CC[C@@]56C[C@@]46CC[C@]23C)O1 [Astragaloside VI] (10 µM) 0
Cc1nc(NC(=O)NCCc2nnn(CCF)n2)sc1-c1ccc(S(C)(=O)=O)c(F)c1 (10 µM) 0
CCN(C)C(=O)c1ccc2c(C(=Nc3ccc(CN4CCCCC4)cc3)c3ccccc3)c(O)[nH]c2c1 (2.5 µM) 0
CC(=O)Nc1nc(C)c(-c2nc(N3CCCC(O)C3)no2)s1 (centres undefined) (10 µM) 0
COc1c(O)cc2oc3cc(O)c(CC=C(C)C)c(O)c3c(=O)c2c1CCC(C)(C)O [Garcinone D] (2.5 µM) 0

A portion taken from the entries so far:
kinase-Nluc reporter destabilization hit call, inactive:
CCOc1ccccc1C=C1C(=O)Nc2ccccc21 (10 µM) 0
CC(C)(C)C(=O)N1N=CC[C@H]1c1ccccc1 (10 µM) 0
